Our source for the solubility values is patent US20070276027A1, “Crystalline Forms of [R-(R* ,R*)]-2-(4-Fluorophenyl)-Beta, -Dihydroxy-5-(1-Methylethyl)-3-Phenyl-4-[(Phenylamino)Carbonyl]-1H-Pyrrole-1-Heptanoic Acid” (Warner-Lambert Company LLC, priority 2003, published 2007).

For this data set the following is noted: solvents including water and phosphate buffered saline solution; compared with Form I atorvastatin calcium (U.S. Pat. No. 5,969,156).

As to `CC(C)c1c(C(=O)Nc2ccccc2)c(-c2ccccc2)c(-c2ccc(F)cc2)n1CC[C@@H](O)C[C@@H](O)CC(=O)O` (relative stereo) [Form A, [R—(R*,R*)]-2-(4-Fluorophenyl)-β,δ-dihydroxy-5-(1-methylethyl)-3-phenyl-4-[(phenylamino)carbonyl]-1H-pyrrole-1-heptanoic acid], the solubility result is listed as “comparable to Form I atorvastatin calcium”.
